Reference: patent EP0113029B1, “Dicyclic hexapeptides, processes for their preparation and pharmaceutical compositions containing them” (Merck & Co., Inc., priority 1982, dated 1989)
Not every detail of the peptide structures is certain; ends, links or a residue may be inferred.

Assays:
growth hormone = assay: in vitro test for the inhibition of growth hormone (cultured rat pituitary cells, radioimmunoassay); assay type: cell-based; conditions: 4 days in culture, 4 hours incubation, somatostatin = 1
insulin = assay: decrease of portal vein insulin levels in anesthetized rats; assay type: in vivo, Male Sprague-Dawley rats; conditions: external jugular vein, blood collected after 5 minutes, somatostatin = 1

C[C@H](N)C(=O)NCC(=O)N[C@H]1CSSC[C@@H](C(=O)O)NC(=O)[C@H](CO)NC(=O)[C@H]([C@@H](C)O)NC(=O)[C@H](Cc2ccccc2)NC(=O)[C@H]([C@@H](C)O)NC(=O)[C@H](CCCCN)NC(=O)[C@H](Cc2c[nH]c3ccccc23)NC(=O)[C@H](Cc2ccccc2)NC(=O)[C@H](Cc2ccccc2)NC(=O)[C@H](CC(N)=O)NC(=O)[C@H](CCCCN)NC1=O [somatostatin, Somatostatin]
inhibition of growth hormone, multiples or fractions of the effect of somatostatin (growth hormone): 1
decrease of portal vein insulin, multiples or fractions of the effect of somatostatin (insulin): 1
